{"source": "PubChem BioAssay AID1487", "about": "(National Center for Advancing Translational Sciences (NCATS), 2009)", "experiment": "qHTS Assay for Modulators of Lamin A Splicing", "conditions": "HeLa LMNA splicing GFP/RFP minigene ratio, 48 h", "how_it_was_run": "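S3 HeLa stable clones carrying a lamin A-EGFP splicing minigene plus DsRed2 were seeded at 600 cells/well in Opti-MEM with 2% FBS, pin-dosed and incubated 48 h at 37°C. Acumen cytometry (488 nm) gave the GFP/RFP total-intensity ratio.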", "key": {"[1]": {"conditions": "measured here: RFP viability control channel"}, "[2]": {"conditions": "measured here: GFP splicing reporter channel"}}, "note": "Some of the results follow. Shown are side measurements of this screen, not its main read-out; they come without a call. Compounds called inactive in the main read-out are mostly missing here. Words in brackets tell the shape of the fitted curve; partial curves, single points and poor fits give uncertain potencies."}
{"smiles": "COC(=O)COc1ccc(S(=O)(=O)Nc2ccc3c(c2)OCO3)cc1Cl", "values": [{"measurement": "AC50", "setting": "[1]", "result": "17.8 µM [rising, single point]"}]}
{"smiles": "CCCN1CCN(C(=S)Nc2ccccc2C(F)(F)F)CC1", "values": [{"measurement": "AC50", "setting": "[1]", "result": "17.8 µM [rising, partial curve, poor fit]"}]}
{"smiles": "COc1ccccc1NC(=O)Cc1nc(CCl)cs1", "values": [{"measurement": "AC50", "setting": "[1]", "result": "11.2 µM [rising, single point]"}]}
{"smiles": "CC(=O)N(Cc1ccc(Br)cc1)c1cccc(C)c1C", "values": [{"measurement": "AC50", "setting": "[1]", "result": "22.4 µM [rising, single point]"}]}
{"smiles": "CC(=O)Nc1ccc(N(C(=O)CNC(=O)c2cccs2)C(C(=O)NC(C)(C)C)c2ccccc2)cc1", "note": "(stereo not drawn)", "values": [{"measurement": "AC50", "setting": "[1]", "result": "0.1 µM [falling, full curve]"}]}
{"smiles": "Nc1nc2ccccc2n1C(=O)CCc1ccccc1", "values": [{"measurement": "AC50", "setting": "[1]", "result": "2.24 µM [rising, full curve]"}]}
{"smiles": "O=C(CCC(=O)NCCCc1ccccc1)NCCCc1ccccc1", "values": [{"measurement": "AC50", "setting": "[2]", "result": "0.00501 µM [falling, full curve, poor fit]"}]}
{"smiles": "COC(=O)c1cn(NC(=O)c2ccc([N+](=O)[O-])c(C)c2)c(=O)c2ccccc12", "values": [{"measurement": "AC50", "setting": "[2]", "result": "35.5 µM [falling, partial curve, poor fit]"}]}
{"smiles": "COc1cccc(-c2cncnc2NCCN2CCOCC2)c1", "values": [{"measurement": "AC50", "setting": "[2]", "result": "25.1 µM [falling, single point]"}, {"measurement": "AC50", "setting": "[1]", "result": "17.8 µM [falling, single point]"}]}
{"smiles": "O=C(Cc1ccc(F)cc1)NCCc1csc2nc(-c3ccc(Cl)cc3)nn12", "values": [{"measurement": "AC50", "setting": "[2]", "result": "0.398 µM [rising, full curve]"}, {"measurement": "AC50", "setting": "[1]", "result": "0.447 µM [rising, full curve, poor fit]"}]}
{"smiles": "COCCn1c(=S)[nH]c2cc(C(=O)N3CCc4ccccc43)ccc2c1=O", "values": [{"measurement": "AC50", "setting": "[1]", "result": "12.6 µM [rising, partial curve]"}]}
{"smiles": "COc1c(OC(C)=O)ccc(/C=C/c2ccc3cccc(OCc4ccccc4)c3n2)c1[N+](=O)[O-]", "values": [{"measurement": "AC50", "setting": "[2]", "result": "22.4 µM [falling, partial curve, poor fit]"}, {"measurement": "AC50", "setting": "[1]", "result": "22.4 µM [falling, single point]"}]}
{"smiles": "CCOC(=O)c1c(C)[nH]c(C(=O)OCC(=O)NC(C)C)c1C", "values": [{"measurement": "AC50", "setting": "[1]", "result": "12.6 µM [rising, partial curve]"}]}
{"smiles": "O=C(c1ccc(Cl)c(S(=O)(=O)N2CCCC2)c1)N1CCN(c2ccc(F)cc2)CC1", "values": [{"measurement": "AC50", "setting": "[2]", "result": "22.4 µM [falling, single point]"}]}
{"smiles": "COc1ccc(C(=O)c2no[n+]([O-])c2C(=O)c2ccc(OC)cc2)cc1", "values": [{"measurement": "AC50", "setting": "[1]", "result": "28.2 µM [falling, single point]"}]}
{"smiles": "CCOC(=O)C1(Cc2ccc(OC)cc2)CCN(C(=O)c2ccc3[nH]ccc3c2)CC1", "values": [{"measurement": "AC50", "setting": "[1]", "result": "0.00355 µM [falling, full curve, poor fit]"}]}
{"smiles": "CCC(C)NS(=O)(=O)c1ccc(S(=O)(=O)N(CC(=O)Nc2ccccc2)Cc2ccco2)cc1", "note": "(stereo not drawn)", "values": [{"measurement": "AC50", "setting": "[2]", "result": "12.6 µM [rising, partial curve]"}, {"measurement": "AC50", "setting": "[1]", "result": "22.4 µM [rising, single point]"}]}
{"smiles": "CCC(C(=O)OCC(=O)Nc1cc(Cl)cc(Cl)c1)c1ccccc1", "note": "(stereo not drawn)", "values": [{"measurement": "AC50", "setting": "[2]", "result": "22.4 µM [rising, single point]"}]}
{"smiles": "O=C(NC(=S)Nc1ccc(N2CCOCC2)c(Cl)c1)c1cncc(Br)c1", "values": [{"measurement": "AC50", "setting": "[2]", "result": "1.41 µM [rising, full curve, poor fit]"}]}
{"smiles": "CCn1cnc2cc(NCc3ccc(N(C)C)cc3)ccc21", "values": [{"measurement": "AC50", "setting": "[1]", "result": "35.5 µM [falling, partial curve]"}]}
{"smiles": "O=S(=O)(NCc1ccccn1)c1ccc(Cl)c(C(F)(F)F)c1", "values": [{"measurement": "AC50", "setting": "[2]", "result": "0.355 µM [falling, full curve, poor fit]"}, {"measurement": "AC50", "setting": "[1]", "result": "0.2 µM [falling, full curve, poor fit]"}]}
{"smiles": "COCCNC(=S)N/N=C1\\CC(C)CC(C)(C)C1", "note": "(stereo not drawn)", "values": [{"measurement": "AC50", "setting": "[2]", "result": "14.1 µM [rising, single point]"}]}
{"smiles": "CC(=O)Nc1ccc(NC(=O)CSc2nc(C)nc3sc(C)c(C)c23)cc1", "values": [{"measurement": "AC50", "setting": "[2]", "result": "0.00447 µM [rising, full curve, poor fit]"}, {"measurement": "AC50", "setting": "[1]", "result": "1.12 µM [rising, partial curve, poor fit]"}]}
{"smiles": "Cc1ccc(C(=O)NCC(=O)OCC(=O)Nc2ccccc2[N+](=O)[O-])cc1", "values": [{"measurement": "AC50", "setting": "[1]", "result": "10 µM [falling, partial curve, poor fit]"}]}
{"smiles": "CCCCCCCCCCCCOS(=O)(=O)O", "values": [{"measurement": "AC50", "setting": "[1]", "result": "0.000891 µM [falling, full curve, poor fit]"}]}
{"smiles": "O=C(Oc1ccc2c(c1)OCO2)c1ccncc1", "values": [{"measurement": "AC50", "setting": "[2]", "result": "0.00447 µM [rising, full curve, poor fit]"}, {"measurement": "AC50", "setting": "[1]", "result": "0.01 µM [rising, full curve, poor fit]"}]}
{"smiles": "O=C(CCl)Nc1c[nH]c(=O)[nH]c1=O", "values": [{"measurement": "AC50", "setting": "[1]", "result": "20 µM [rising, single point]"}]}
{"smiles": "C[C@@]12C=CC(=O)C=C1CCC1C3CC(O)[C@@](O)(C(=O)CO)[C@]3(C)CC(O)[C@]12F", "note": "(stereo partly drawn)", "values": [{"measurement": "AC50", "setting": "[1]", "result": "3.16 µM [rising, single point]"}]}
{"smiles": "COc1ccc(NC(=O)C(=O)NCCc2csc3nc(-c4ccccc4C)nn23)cc1", "values": [{"measurement": "AC50", "setting": "[2]", "result": "15.8 µM [falling, single point]"}, {"measurement": "AC50", "setting": "[1]", "result": "22.4 µM [falling, partial curve, poor fit]"}]}
{"smiles": "CCOc1ccc2c(c1)OC(c1ccc(C)cc1)(C(F)(F)F)NC2=O", "note": "(stereo not drawn)", "values": [{"measurement": "AC50", "setting": "[2]", "result": "5.62 µM [rising, single point]"}, {"measurement": "AC50", "setting": "[1]", "result": "5.62 µM [rising, single point]"}]}
{"smiles": "C/C(=N\\NC(=O)CNc1cccc(C(F)(F)F)c1)c1ccc(Br)cc1", "values": [{"measurement": "AC50", "setting": "[1]", "result": "0.00316 µM [falling, full curve, poor fit]"}]}
{"smiles": "Cc1ccc(CSc2nc3cccnc3n2Cc2nc(-c3ccccc3F)oc2C)cc1", "values": [{"measurement": "AC50", "setting": "[2]", "result": "35.5 µM [falling, single point]"}, {"measurement": "AC50", "setting": "[1]", "result": "0.316 µM [rising, single point]"}]}
{"smiles": "Cc1cccc(Cc2c(C)nc3c(C(=O)N4CCN(Cc5ccc6c(c5)OCO6)CC4)cnn3c2C)c1", "values": [{"measurement": "AC50", "setting": "[2]", "result": "0.501 µM [falling, partial curve, poor fit]"}, {"measurement": "AC50", "setting": "[1]", "result": "7.94 µM [falling, partial curve, poor fit]"}]}
{"smiles": "Cc1ccc(NC(=O)COC(=O)CCc2nc3ccccc3c(=O)[nH]2)c(Br)c1", "values": [{"measurement": "AC50", "setting": "[2]", "result": "0.00447 µM [falling, full curve, poor fit]"}, {"measurement": "AC50", "setting": "[1]", "result": "0.00794 µM [falling, full curve, poor fit]"}]}
{"smiles": "COc1cccc(/C=N/NC(=O)c2[nH]nc3c2CCc2ccccc2-3)c1O", "values": [{"measurement": "AC50", "setting": "[2]", "result": "35.5 µM [falling, single point]"}, {"measurement": "AC50", "setting": "[1]", "result": "3.98 µM [rising, single point]"}]}
